Results: the supplement of paper PMC7661543
The effect of the compound repeats well; differences between the knockouts mostly do not. Where a SMILES comes first, the peptide text is derived from it. The star is where a group is joined. Cbz = O=C(OCc1ccccc1)*

Test system: HCC-38
Assay: relative cell number vs DMSO control (72 h) (% of DMSO); higher = less growth inhibition (more cells)
Protocol: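 QMAP-Seq: a pool of 5 breast cancer cell lines (ZR-75-1, SKBR3, HCC-38, MDA-MB-231, BT-20), each carrying 12 doxycycline-inducible Cas9 sgRNA perturbations (11 knockouts plus non-targeting sgNT), was treated with compounds for 72 h at four 10-fold doses (10 nM-10 uM or 1 nM-1 uM range). Barcodes were amplified and sequenced, and cell number was interpolated from 293T spike-in standard curves. The result is expressed as % of the median of DMSO wells. Two biological replicates.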

CC[C@H](C)C(=O)O[C@H]1C[C@@H](C)C=C2C=C[C@H](C)[C@H](CC[C@@H]3C[C@@H](O)CC(=O)O3)[C@H]21 [Lovastatin]
Settings	relative cell number
sgRNA knockout: sgATF3, 10 nM	93.2
sgRNA knockout: sgATF3, 100 nM	83.58
sgRNA knockout: sgATF3, 1000 nM	96.5
sgRNA knockout: sgATF3, 10000 nM	74.5
sgRNA knockout: sgATF4, 10 nM	95.9
sgRNA knockout: sgATF4, 100 nM	80
sgRNA knockout: sgATF4, 1000 nM	90.3
sgRNA knockout: sgATF4, 10000 nM	76.2
sgRNA knockout: sgATF6, 10 nM	101
sgRNA knockout: sgATF6, 100 nM	99.5
sgRNA knockout: sgATF6, 1000 nM	98.1
sgRNA knockout: sgATF6, 10000 nM	72.8
sgRNA knockout: sgATG7, 10 nM	94.3
sgRNA knockout: sgATG7, 100 nM	82.77
sgRNA knockout: sgATG7, 1000 nM	87
sgRNA knockout: sgATG7, 10000 nM	73.1
sgRNA knockout: sgERN1, 10 nM	86
sgRNA knockout: sgERN1, 100 nM	86.2
sgRNA knockout: sgERN1, 1000 nM	93.3
sgRNA knockout: sgERN1, 10000 nM	79.3
sgRNA knockout: sgHSF1, 10 nM	107
sgRNA knockout: sgHSF1, 100 nM	92.5
sgRNA knockout: sgHSF1, 1000 nM	102
sgRNA knockout: sgHSF1, 10000 nM	60.9
sgRNA knockout: sgHSF2, 10 nM	96.6
sgRNA knockout: sgHSF2, 100 nM	82.2
sgRNA knockout: sgHSF2, 1000 nM	88.6
sgRNA knockout: sgHSF2, 10000 nM	76.1
sgRNA knockout: sgKEAP1, 10 nM	129
sgRNA knockout: sgKEAP1, 100 nM	80.2
sgRNA knockout: sgKEAP1, 1000 nM	110
sgRNA knockout: sgKEAP1, 10000 nM	72.9
sgRNA knockout: sgNFE2L2, 10 nM	84.9
sgRNA knockout: sgNFE2L2, 100 nM	81.8
sgRNA knockout: sgNFE2L2, 1000 nM	94.9
sgRNA knockout: sgNFE2L2, 10000 nM	76.8
sgRNA knockout: sgSLC35F2, 10 nM	94.7
sgRNA knockout: sgSLC35F2, 100 nM	79.1
sgRNA knockout: sgSLC35F2, 1000 nM	94
sgRNA knockout: sgSLC35F2, 10000 nM	69.9
sgRNA knockout: sgXBP1, 10 nM	84.6
sgRNA knockout: sgXBP1, 100 nM	79.6
sgRNA knockout: sgXBP1, 1000 nM	97.5
sgRNA knockout: sgXBP1, 10000 nM	78.2

CC(C)C[C@@H](C=O)NC(=O)[C@H](CC(C)C)NC(=O)[C@H](CC(C)C)NC(=O)OCc1ccccc1 [MG132] (Cbz-Leu-Leu-Leu-aldehyde)
Settings	relative cell number
sgRNA knockout: sgATF3, 10 nM	99.9
sgRNA knockout: sgATF3, 100 nM	99.9
sgRNA knockout: sgATF3, 1000 nM	7.44
sgRNA knockout: sgATF3, 10000 nM	7.5
sgRNA knockout: sgATF4, 10 nM	88.3
sgRNA knockout: sgATF4, 100 nM	102
sgRNA knockout: sgATF4, 1000 nM	6
sgRNA knockout: sgATF4, 10000 nM	7.229
sgRNA knockout: sgATF6, 10 nM	83.06
sgRNA knockout: sgATF6, 100 nM	96.91
sgRNA knockout: sgATF6, 1000 nM	10.7
sgRNA knockout: sgATF6, 10000 nM	10.1
sgRNA knockout: sgATG7, 10 nM	88.1
sgRNA knockout: sgATG7, 100 nM	92.8
sgRNA knockout: sgATG7, 1000 nM	7.21
sgRNA knockout: sgATG7, 10000 nM	8.4
sgRNA knockout: sgERN1, 10 nM	99.3
sgRNA knockout: sgERN1, 100 nM	95.9
sgRNA knockout: sgERN1, 1000 nM	6.27
sgRNA knockout: sgERN1, 10000 nM	8.15
sgRNA knockout: sgHSF1, 10 nM	89.3
sgRNA knockout: sgHSF1, 100 nM	90.3
sgRNA knockout: sgHSF1, 1000 nM	7.64
sgRNA knockout: sgHSF1, 10000 nM	4.705
sgRNA knockout: sgHSF2, 10 nM	88.9
sgRNA knockout: sgHSF2, 100 nM	111
sgRNA knockout: sgHSF2, 1000 nM	7.6
sgRNA knockout: sgHSF2, 10000 nM	6.18
sgRNA knockout: sgKEAP1, 10 nM	89.8
sgRNA knockout: sgKEAP1, 100 nM	92
sgRNA knockout: sgKEAP1, 1000 nM	8.14
sgRNA knockout: sgKEAP1, 10000 nM	5.83
sgRNA knockout: sgNFE2L2, 10 nM	85.8
sgRNA knockout: sgNFE2L2, 100 nM	96.3
sgRNA knockout: sgNFE2L2, 1000 nM	6.27
sgRNA knockout: sgNFE2L2, 10000 nM	5.82
sgRNA knockout: sgSLC35F2, 10 nM	93.61
sgRNA knockout: sgSLC35F2, 100 nM	99.1
sgRNA knockout: sgSLC35F2, 1000 nM	7.06
sgRNA knockout: sgSLC35F2, 10000 nM	7.14
sgRNA knockout: sgXBP1, 10 nM	91.3
sgRNA knockout: sgXBP1, 100 nM	101
sgRNA knockout: sgXBP1, 1000 nM	7.01
sgRNA knockout: sgXBP1, 10000 nM	7.54

O=C(O)CC[C@H]1CC[C@@](c2cc(F)ccc2F)(S(=O)(=O)c2ccc(Cl)cc2)CC1 [MK0752]
Settings	relative cell number
sgRNA knockout: sgATF3, 10 nM	134
sgRNA knockout: sgATF3, 100 nM	122
sgRNA knockout: sgATF3, 1000 nM	116
sgRNA knockout: sgATF3, 10000 nM	125
sgRNA knockout: sgATF4, 10 nM	129
sgRNA knockout: sgATF4, 100 nM	115
sgRNA knockout: sgATF4, 1000 nM	102
sgRNA knockout: sgATF4, 10000 nM	111
sgRNA knockout: sgATF6, 10 nM	145
sgRNA knockout: sgATF6, 100 nM	123
sgRNA knockout: sgATF6, 1000 nM	140.7
sgRNA knockout: sgATF6, 10000 nM	130
sgRNA knockout: sgATG7, 10 nM	134
sgRNA knockout: sgATG7, 100 nM	115
sgRNA knockout: sgATG7, 1000 nM	111.6
sgRNA knockout: sgATG7, 10000 nM	111
sgRNA knockout: sgERN1, 10 nM	130
sgRNA knockout: sgERN1, 100 nM	119
sgRNA knockout: sgERN1, 1000 nM	119
sgRNA knockout: sgERN1, 10000 nM	132
sgRNA knockout: sgHSF1, 10 nM	165
sgRNA knockout: sgHSF1, 100 nM	140
sgRNA knockout: sgHSF1, 1000 nM	132
sgRNA knockout: sgHSF1, 10000 nM	141
sgRNA knockout: sgHSF2, 10 nM	156
sgRNA knockout: sgHSF2, 100 nM	117
sgRNA knockout: sgHSF2, 1000 nM	129
sgRNA knockout: sgHSF2, 10000 nM	134
sgRNA knockout: sgKEAP1, 10 nM	178
sgRNA knockout: sgKEAP1, 100 nM	128
sgRNA knockout: sgKEAP1, 1000 nM	139
sgRNA knockout: sgKEAP1, 10000 nM	151
sgRNA knockout: sgNFE2L2, 10 nM	129
sgRNA knockout: sgNFE2L2, 100 nM	110
sgRNA knockout: sgNFE2L2, 1000 nM	112
sgRNA knockout: sgNFE2L2, 10000 nM	117
sgRNA knockout: sgSLC35F2, 10 nM	142
sgRNA knockout: sgSLC35F2, 100 nM	123
sgRNA knockout: sgSLC35F2, 1000 nM	113
sgRNA knockout: sgSLC35F2, 10000 nM	116
sgRNA knockout: sgXBP1, 10 nM	140
sgRNA knockout: sgXBP1, 100 nM	121
sgRNA knockout: sgXBP1, 1000 nM	119
sgRNA knockout: sgXBP1, 10000 nM	122
